PubChem BioAssay AID1259405 | NCATS – 2018

Purpose: 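Knock-downs that lift recombinant protein yield in hamster ovary cells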 (primary screen)
System: Chinese hamster CHO-K1 ovary cells with stable secreted eGFP expression
Reagents: single siRNA against mouse genes, 0.8 pmol siRNA per well (2 µl of 400 nM stock)
Time to read-out: 3 days
Detection: 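Per-well intracellular GFP measured by laser scanning cytometry, plus viability from ATP luminescence, each relative to plate median of non-targeting control wells, in %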
Scale: GFP, % of control: higher = more GFP per well, higher productivity; viability (ATP), % of control: higher = more viable cells (more ATP)
Call rule: 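a knock-down is called active if GFP reaches 120% or more of non-targeting control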
In all, the deposit lists about 50,000 reagents; below is a part drawn at random. In the full data, about 4,000 (8%) got an active call. 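Mouse siRNA library applied to hamster cells; one well for each siRNA.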 Reagents against one gene are numbered here. No sequences are given here.

The opening 5 records as a preview:
no.	Gene	reagent	GFP, % of control	viability (ATP), % of control	activity call
1	Mcf2l (mcf.2 transforming sequence-like)	1	71.1	79.5	inactive
2	Mcf2l (mcf.2 transforming sequence-like)	2	144	85.2	active
3	Mcf2l (mcf.2 transforming sequence-like)	3	62.3	80.3	inactive
4	Ctu2 (cytosolic thiouridylase subunit 2)	1	104	92.6	inactive
5	Ctu2 (cytosolic thiouridylase subunit 2)	2	114	71.7	inactive

The list itself, repeating the preview:
no.	Gene	reagent	GFP, % of control	viability (ATP), % of control	activity call
1	Mcf2l (mcf.2 transforming sequence-like)	1	71.1	79.5	inactive
2	Mcf2l (mcf.2 transforming sequence-like)	2	144	85.2	active
3	Mcf2l (mcf.2 transforming sequence-like)	3	62.3	80.3	inactive
4	Ctu2 (cytosolic thiouridylase subunit 2)	1	104	92.6	inactive
5	Ctu2 (cytosolic thiouridylase subunit 2)	2	114	71.7	inactive
6	Ctu2 (cytosolic thiouridylase subunit 2)	3	69.6	68.7	inactive
7	Tmcc2 (transmembrane and coiled-coil domains 2)	1	68.1	85.5	inactive
8	Tmcc2 (transmembrane and coiled-coil domains 2)	2	47.8	63.2	inactive
9	Tmcc2 (transmembrane and coiled-coil domains 2)	3	55.3	50.1	inactive
10	Smim3 (small integral membrane protein 3)	1	78.1	54.6	inactive
11	Smim3 (small integral membrane protein 3)	2	127	107	active
12	Smim3 (small integral membrane protein 3)	3	82.4	92.2	inactive
13	Sec61g (SEC61 translocon subunit gamma)	1	40.5	17.7	inactive
14	Sec61g (SEC61 translocon subunit gamma)	2	91.5	85.9	inactive
15	Sec61g (SEC61 translocon subunit gamma)	3	91.4	75.7	inactive
16	Hesx1 (homeobox gene expressed in ES cells)	1	49.5	39.9	inactive
17	Hesx1 (homeobox gene expressed in ES cells)	2	77.8	66.6	inactive
18	Hesx1 (homeobox gene expressed in ES cells)	3	96.4	81.4	inactive
19	Septin5 (septin 5)	1	68.8	79.9	inactive
20	Septin5 (septin 5)	2	113	103	inactive
21	Septin5 (septin 5)	3	73.1	63.9	inactive
22	Pdcl3 (phosducin-like 3)	1	56.1	66.4	inactive
23	Pdcl3 (phosducin-like 3)	2	77.5	65.6	inactive
24	Pdcl3 (phosducin-like 3)	3	88.2	71.2	inactive
25	Clca3a1 (chloride channel accessory 3A1)	1	67.8	80	inactive
26	Clca3a1 (chloride channel accessory 3A1)	2	32.2	17.3	inactive
27	Clca3a1 (chloride channel accessory 3A1)	3	77.3	81.1	inactive
28	Mug1 (murinoglobulin 1)	1	131	101	active
29	Mug1 (murinoglobulin 1)	2	65.9	60.2	inactive
30	Mug1 (murinoglobulin 1)	3	105	98.6	inactive
31	Sf1 (splicing factor 1)	1	88.1	117	inactive
32	Sf1 (splicing factor 1)	2	71.7	62	inactive
33	Sf1 (splicing factor 1)	3	78.2	77.6	inactive
34	Npm1 (nucleophosmin 1)	1	82.1	61.2	inactive
35	Npm1 (nucleophosmin 1)	2	76.1	81.2	inactive
36	Npm1 (nucleophosmin 1)	3	50.1	66.5	inactive
37	Spic (Spi-C transcription factor (Spi-1/PU.1 related))	1	59.6	71	inactive
38	Spic (Spi-C transcription factor (Spi-1/PU.1 related))	2	47.4	60.1	inactive
39	Spic (Spi-C transcription factor (Spi-1/PU.1 related))	3	68.1	79.4	inactive
40	Rpl18 (ribosomal protein L18)	1	46.8	24.6	inactive
41	Rpl18 (ribosomal protein L18)	2	58.5	42.1	inactive
42	Rpl18 (ribosomal protein L18)	3	77.6	60.3	inactive
43	Zbtb7b (zinc finger and BTB domain containing 7B)	1	74.3	86.3	inactive
44	Zbtb7b (zinc finger and BTB domain containing 7B)	2	63.4	77.4	inactive
45	Alox5ap (arachidonate 5-lipoxygenase activating protein)	1	111	122	inactive
46	Alox5ap (arachidonate 5-lipoxygenase activating protein)	2	53.9	62.7	inactive
47	Maged1 (MAGE family member D1)	1	28.2	94.9	inactive
48	Maged1 (MAGE family member D1)	2	74.5	50.5	inactive
49	Maged1 (MAGE family member D1)	3	111	120	inactive
50	Prkra	1	72.2	124	inactive
51	Prkra	2	95.9	85.4	inactive
52	Vmn1r41 (vomeronasal 1 receptor 41)	1	68.3	34	inactive
53	Vmn1r41 (vomeronasal 1 receptor 41)	2	83.5	72	inactive
54	Vmn1r41 (vomeronasal 1 receptor 41)	3	86.5	90.4	inactive
55	Rasgrp2 (RAS, guanyl releasing protein 2)	1	135	89.5	active
56	Rasgrp2 (RAS, guanyl releasing protein 2)	2	100	71.3	inactive
57	Rasgrp2 (RAS, guanyl releasing protein 2)	3	110	58.7	inactive
